{"source": "patent EP4599821A1", "about": "“CANNABIDIOL-COMPRISING LIPOSOMES” (Novozymatic BV, priority 2024, dated 2025)", "origin": "cited, not measured here", "settings": "oral, expected; cited from earlier work", "data": [{"smiles": "C=C(C)[C@@H]1CCC(C)=C[C@H]1c1c(O)cc(CCCCC)cc1O", "note": "[CBD, cannabidiol]", "values": [{"measurement": "bioavailability following administration with food", "result": "14-25%"}]}]}
